Where “and” joins values, the source holds several entries; their conditions need not be identical. Equal entries are not always repeated. The list shows a part of the results. Single wells; the ratio to wells without odorant was worked out here, and repeats agree poorly.
System: OR6P1 clone 1034
Assay: odorant receptor activation (CRE luciferase / Renilla) (fold of no-odor wells); higher = more activation
Details: 100 µM

SMILES | odorant receptor activation
CC/C=C\CCO [cis-3-hexen-1-ol] | 1.18
CCCCCCCCCCC=O [undecanal] | 1.21
COC(=O)c1ccccc1 [methyl benzoate] | 1.99
C=C(C)C1CC=CCC1 (configuration not stated) [r-limonene] | 1.33 and 1.57

System: OR6Q1 clone 1231
Assay: as above
Details: 100 µM

SMILES | odorant receptor activation
CCCCCCC=O [heptaldehyde] | 1.03
COc1cc(C)ccc1O [2-methoxy-4-methylphenol] | 1.18
O=C1CCCCCCCCCCCCCCO1 [pentadecalactone] | 0.907
CC(C)(C)c1ccc(CCC=O)cc1 [bourgeonal] | 0.637
CCCCCCOC(=O)CCC [hexyl butyrate] | 1.05
CC12C=CCC1C1CCC3=CC(=O)CCC3(C)C1CC2 (configuration not stated) [androstadienone] | 0.945
CC12CCC(CC1)C(C)(C)O2 [cineole] | 1.02
CCCC(=O)O [butyric acid] | 1.26
COc1ccccc1O [guaiacol] | 0.947
CCCCCCCOC(C)=O [heptyl acetate] | 0.909
CCCCCCCCC=O [nonyl aldehyde] | 0.732
CC1COCc2cc3c(cc21)C(C)(C)C(C)C3(C)C (configuration not stated) [galaxolide] | 0.662
CC(C)CC(=O)O [isovaleric acid] | 1.07
CC(C)C=O [isobutyraldehyde] | 1.05
CCCCCCCC=O [octyl aldehyde] | 0.836
CC1=CCC(C(C)(C)O)CC1 (configuration not stated) [terpineol] | 1.14
CC12C=CCC1C1CCC3CC(=O)CCC3(C)C1CC2 (configuration not stated) [androstenone] | 8.32
CC=Cc1ccc(O)c(OC)c1 [isoeugenol] | 1.13

Looked up by structure from the entries so far (two):
SMILES | odorant receptor activation
COc1ccccc1O [guaiacol] | 0.947
CC12C=CCC1C1CCC3=CC(=O)CCC3(C)C1CC2 (configuration not stated) [androstadienone] | 0.945

From the odorant receptor screen of Mainland et al. (2015)
